Results: paper PMC3499479
No constants are given. Whether binding was seen depends on the method and setting. For part of these data: In cells and extracts the contact can be indirect. Some results given as binding are weak or reduced against the parent protein; the word gives no strength. For part of these data: Sequences can lack the tags named with a protein.

T1: F-box (FBX) protein At3g03360, BiFC fusion (Arabidopsis thaliana) (UniProt Q84W80)
T1 sequence: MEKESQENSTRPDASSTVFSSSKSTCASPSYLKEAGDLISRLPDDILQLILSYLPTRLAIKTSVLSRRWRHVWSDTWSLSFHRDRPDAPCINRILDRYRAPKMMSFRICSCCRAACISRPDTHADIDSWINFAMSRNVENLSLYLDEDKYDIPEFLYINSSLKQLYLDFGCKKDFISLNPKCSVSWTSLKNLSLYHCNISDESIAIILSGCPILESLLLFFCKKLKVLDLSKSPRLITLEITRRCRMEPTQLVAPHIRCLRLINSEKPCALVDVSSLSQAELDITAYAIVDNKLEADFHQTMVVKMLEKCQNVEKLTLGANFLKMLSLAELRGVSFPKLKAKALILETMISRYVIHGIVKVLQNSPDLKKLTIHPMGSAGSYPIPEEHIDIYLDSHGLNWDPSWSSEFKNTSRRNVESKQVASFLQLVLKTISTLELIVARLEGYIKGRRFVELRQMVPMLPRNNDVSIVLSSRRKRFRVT

T2: F-box (FBX) protein At3g04660, BiFC fusion (Arabidopsis thaliana) (UniProt Q9SR08)
T2 sequence: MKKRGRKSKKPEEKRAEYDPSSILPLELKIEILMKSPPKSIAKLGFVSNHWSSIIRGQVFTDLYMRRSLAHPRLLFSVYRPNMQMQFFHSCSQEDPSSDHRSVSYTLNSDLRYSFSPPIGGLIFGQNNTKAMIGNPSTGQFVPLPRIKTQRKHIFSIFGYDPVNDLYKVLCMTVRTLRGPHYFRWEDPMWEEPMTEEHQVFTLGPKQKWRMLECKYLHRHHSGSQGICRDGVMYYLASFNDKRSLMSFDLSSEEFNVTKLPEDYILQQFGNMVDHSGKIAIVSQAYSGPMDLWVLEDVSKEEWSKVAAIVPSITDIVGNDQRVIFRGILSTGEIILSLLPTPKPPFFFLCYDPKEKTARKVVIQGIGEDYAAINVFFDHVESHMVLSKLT

T3: F-box (FBX) protein At5g21040, BiFC fusion (Arabidopsis thaliana) (UniProt Q94AD8)
T3 sequence: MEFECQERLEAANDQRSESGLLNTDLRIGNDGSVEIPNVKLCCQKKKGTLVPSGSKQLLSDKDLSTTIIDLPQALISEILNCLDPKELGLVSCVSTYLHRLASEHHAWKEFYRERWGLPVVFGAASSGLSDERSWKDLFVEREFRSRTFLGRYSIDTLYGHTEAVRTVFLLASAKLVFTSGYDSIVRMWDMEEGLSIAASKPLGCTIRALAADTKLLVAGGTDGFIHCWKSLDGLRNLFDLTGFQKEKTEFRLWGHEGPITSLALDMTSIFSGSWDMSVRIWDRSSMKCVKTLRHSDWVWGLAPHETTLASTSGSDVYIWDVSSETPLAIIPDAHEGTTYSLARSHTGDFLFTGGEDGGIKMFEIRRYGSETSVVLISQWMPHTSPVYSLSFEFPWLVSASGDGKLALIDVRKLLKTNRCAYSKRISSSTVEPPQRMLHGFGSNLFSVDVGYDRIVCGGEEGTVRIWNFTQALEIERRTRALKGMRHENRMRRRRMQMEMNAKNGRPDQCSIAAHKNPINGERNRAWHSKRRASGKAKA

T4: F-box (FBX) protein At1g30790, BiFC fusion (Arabidopsis thaliana) (UniProt Q9SY20)
T4 sequence: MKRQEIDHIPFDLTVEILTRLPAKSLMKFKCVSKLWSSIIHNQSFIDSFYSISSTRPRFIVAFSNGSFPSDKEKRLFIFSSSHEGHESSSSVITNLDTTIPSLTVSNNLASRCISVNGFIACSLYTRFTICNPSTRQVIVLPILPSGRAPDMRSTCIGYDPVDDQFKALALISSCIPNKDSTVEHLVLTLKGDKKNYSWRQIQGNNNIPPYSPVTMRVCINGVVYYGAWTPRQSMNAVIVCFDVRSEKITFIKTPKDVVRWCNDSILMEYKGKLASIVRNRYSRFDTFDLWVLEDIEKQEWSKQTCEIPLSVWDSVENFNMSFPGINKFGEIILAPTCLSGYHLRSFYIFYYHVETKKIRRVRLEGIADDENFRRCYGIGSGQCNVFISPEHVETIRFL

T5: F-box (FBX) protein At3g03360 (Arabidopsis thaliana) (UniProt Q84W80)
T5 sequence: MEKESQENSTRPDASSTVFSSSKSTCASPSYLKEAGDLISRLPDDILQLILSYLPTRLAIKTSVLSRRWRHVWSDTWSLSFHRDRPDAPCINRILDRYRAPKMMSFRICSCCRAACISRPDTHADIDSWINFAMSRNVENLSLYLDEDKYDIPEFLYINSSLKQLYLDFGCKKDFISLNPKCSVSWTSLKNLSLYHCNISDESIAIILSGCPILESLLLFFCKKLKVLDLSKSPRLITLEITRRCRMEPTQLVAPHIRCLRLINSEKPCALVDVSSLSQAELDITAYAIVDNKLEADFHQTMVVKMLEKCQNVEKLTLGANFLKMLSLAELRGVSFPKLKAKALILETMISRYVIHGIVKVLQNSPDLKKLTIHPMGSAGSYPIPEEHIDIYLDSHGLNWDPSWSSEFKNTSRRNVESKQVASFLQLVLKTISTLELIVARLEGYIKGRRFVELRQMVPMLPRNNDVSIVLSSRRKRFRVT

T6: F-box (FBX) protein At1g30790 (Arabidopsis thaliana) (UniProt Q9SY20)
T6 sequence: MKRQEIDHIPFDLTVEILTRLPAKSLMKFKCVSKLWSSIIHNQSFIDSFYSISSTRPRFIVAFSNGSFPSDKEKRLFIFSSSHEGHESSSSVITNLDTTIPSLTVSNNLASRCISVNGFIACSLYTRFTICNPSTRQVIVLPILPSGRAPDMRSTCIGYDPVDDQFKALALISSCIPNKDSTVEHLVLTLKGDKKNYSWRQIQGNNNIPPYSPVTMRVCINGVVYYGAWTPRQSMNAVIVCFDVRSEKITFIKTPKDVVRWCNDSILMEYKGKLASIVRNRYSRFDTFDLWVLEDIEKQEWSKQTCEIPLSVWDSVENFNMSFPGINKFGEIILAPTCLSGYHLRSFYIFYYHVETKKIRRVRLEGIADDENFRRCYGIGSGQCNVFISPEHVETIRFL


Key:
[1] = molecular target: T1, F-box (FBX) protein At3g03360, BiFC fusion (Arabidopsis thaliana); test: split reporter; FBX in pSCYCE (SCFP3A 174-328), ASK in pSCYNE (SCFP3A 1-173), CaMV 35S promoter; Agrobacterium GV3101 infiltrated into Nicotiana tabacum leaves, 28 C for 3 days; fluorescence microscopy
[2] = molecular target: T2, F-box (FBX) protein At3g04660, BiFC fusion (Arabidopsis thaliana); test: as above
[3] = molecular target: T3, F-box (FBX) protein At5g21040, BiFC fusion (Arabidopsis thaliana); test: as above
[4] = molecular target: T4, F-box (FBX) protein At1g30790, BiFC fusion (Arabidopsis thaliana); test: as above
[5] = molecular target: T5, F-box (FBX) protein At3g03360 (Arabidopsis thaliana); test: two-hybrid; FBX fused to Gal4-DB, ASK fused to Gal4-AD; yeast mating; selection on SD without Leu, Trp, His, Ade (high strength) or without Leu, Trp, His (low strength); every combination examined twice
[6] = molecular target: T6, F-box (FBX) protein At1g30790 (Arabidopsis thaliana); test: as above

Binder | binding [1] | binding [2] | binding [3] | binding [4] | binding [5] | binding [6]
Arabidopsis SKP1-LIKE 16 (ASK16) (protein, UniProt O81055 1-170) MSSNKIVLTSSDDESFEVEEAVARKLKVIAHMIDDDCADKAIPLENVTGNILALVIEYCKKHVLDDVDDSDDSTEATSENVNEEAKNELRTWDAEFMKEFDMETVMKLILAVNYLNVQDLLGLTCQTVADHMKDMSPEEVRELFNIENDYTPEEEDAIRKENAWAFEDLK | – | – | – | – | binds | binds
Arabidopsis SKP1-LIKE 10 (ASK10), BiFC fusion (protein, UniProt Q9LSX8 1-152) MSTKKIILKSSDGHSFEVEEEAACQCQTIAHMSEDDCTDNGIPLPEVTGKILEMVIEYCNKHHVDAANPCSDEDLKKWDKEFMEKYQSTIFDLIMAANYLNIKSLLDLACQTVADMIKDNTVEHTRKFFNIENDYTHEEEEAVRRENQWGFE | – | – | – | binds | – | –
Arabidopsis SKP1-LIKE 17 (ASK17), BiFC fusion (protein, UniProt Q9SL65 1-150) MSSKKIVLTSSDDECFEIDEAVARKMQMVAHMIDDDCADKAIRLQNVTGKILAIIIEYCKKHVDDVEAKNEFVTWDAEFVKNIDMDTLFKLLDAADYLIVIGLKNLIAQAIADYTADKTVNEIRELFNIENDYTPEEEEELRKKNEWAFN | binds | binds | – | binds | – | –
Arabidopsis SKP1-LIKE 14 (ASK14), BiFC fusion (protein, UniProt O81057 1-149) MSSNKIVLSSSDGESFEVEEAVARKLKIVEHMIEDDCVVTEVPLQNVTGKILSIVVEYCKKHVVDEESDEFKTWDEEFMKKFDQPTVFQLLLAANYLNIKGLLDLSAQTVADRIKDKTPEEIREIFNIENDFTPEEEAAVRKENAWAFE | binds | binds | binds | binds | – | –

Second part, the binder after the results:

binding [1] | binding [2] | binding [3] | binding [4] | binding [5] | binding [6] | Binder
binds | binds | – | – | – | – | Arabidopsis SKP1-LIKE 3 (ASK3), BiFC fusion (protein, UniProt Q9SL93 1-163) MAETKKMIILKSSDGESFEVEEAVAVESQTIKHMIEDDCVDNGIPLPNVTGAILAKVIEYCKKHVEAAAEAGGDKDFYGSTENHELKTWDNDFVKVDHPTLFDLLRAANYLNISGLLDLTCKAVADQMRGKTPAQMREHFNIKNDYTPEEEAEVRNENRWAFE
– | – | binds | binds | – | – | Arabidopsis SKP1-LIKE 16 (ASK16), BiFC fusion (protein, UniProt O81055 1-170) MSSNKIVLTSSDDESFEVEEAVARKLKVIAHMIDDDCADKAIPLENVTGNILALVIEYCKKHVLDDVDDSDDSTEATSENVNEEAKNELRTWDAEFMKEFDMETVMKLILAVNYLNVQDLLGLTCQTVADHMKDMSPEEVRELFNIENDYTPEEEDAIRKENAWAFEDLK
– | binds | binds | – | – | – | Arabidopsis SKP1-LIKE 13 (ASK13), BiFC fusion (protein, UniProt Q9M1X5 1-154) MSKMVMLLSSDGESFQVEEAVAVQSQTIAHMIEDDCVANGVPIANVTGVILSKVIEYCKKHVVSDSPTEESKDELKKWDAEFMKALEQSSTLFDVMLAANYLNIKDLLDLGCQTVADMITGKKPDEIRALLGIENDFTPEEEEEIRKENQWAFE
– | binds | binds | – | – | – | Arabidopsis SKP1-LIKE 18 (ASK18), BiFC fusion (protein, UniProt Q9SY65 1-158) MSSNKILLTSSDGESFEIDEAVARKFLIIVHMMEDNCAGEAIPLENVTGDILSKIIEYAKMHVNEPSEEDEDEEAKKNLDSWDAKFMEKLDLETIFKIILAANYLNFEGLLGFASQTVADYIKDKTPEEVREIFNIENDFTPEEEEEIRKENAWTFNE
